Results published in the supplement of paper PMC10849652.
This is one part of the list.

Sequences of proteins named here, by UniProt entry; tags and fusion partners are left off. A change or cut given only in a name is not applied to a line headed by its entry.
UniProt P51808: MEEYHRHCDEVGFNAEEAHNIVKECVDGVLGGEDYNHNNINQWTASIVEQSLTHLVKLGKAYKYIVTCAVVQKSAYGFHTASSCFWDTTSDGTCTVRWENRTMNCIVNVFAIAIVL
UniProt Q05193: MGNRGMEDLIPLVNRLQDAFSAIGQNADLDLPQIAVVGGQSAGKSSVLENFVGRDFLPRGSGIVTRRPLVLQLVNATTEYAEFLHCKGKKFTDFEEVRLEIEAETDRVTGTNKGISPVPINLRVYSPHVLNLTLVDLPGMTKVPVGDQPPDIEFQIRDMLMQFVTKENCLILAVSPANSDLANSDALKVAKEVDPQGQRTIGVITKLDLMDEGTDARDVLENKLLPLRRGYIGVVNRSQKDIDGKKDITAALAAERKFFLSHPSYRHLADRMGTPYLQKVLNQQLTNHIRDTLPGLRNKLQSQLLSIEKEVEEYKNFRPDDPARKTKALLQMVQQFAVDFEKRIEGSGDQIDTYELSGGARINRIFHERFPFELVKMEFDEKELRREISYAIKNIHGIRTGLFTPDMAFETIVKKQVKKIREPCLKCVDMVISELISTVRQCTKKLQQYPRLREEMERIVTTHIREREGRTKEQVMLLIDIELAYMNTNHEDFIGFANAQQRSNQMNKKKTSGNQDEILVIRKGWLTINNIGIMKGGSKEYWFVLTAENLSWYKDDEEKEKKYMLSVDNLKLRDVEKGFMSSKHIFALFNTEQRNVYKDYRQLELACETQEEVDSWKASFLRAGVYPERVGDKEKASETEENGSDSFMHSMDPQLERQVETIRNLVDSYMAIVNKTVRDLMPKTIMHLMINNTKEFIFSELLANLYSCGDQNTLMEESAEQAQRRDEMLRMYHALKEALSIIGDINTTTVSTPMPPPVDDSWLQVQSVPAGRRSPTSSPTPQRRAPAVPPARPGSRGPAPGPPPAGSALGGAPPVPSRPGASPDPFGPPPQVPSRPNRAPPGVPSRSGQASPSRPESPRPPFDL
UniProt Q9NRR4: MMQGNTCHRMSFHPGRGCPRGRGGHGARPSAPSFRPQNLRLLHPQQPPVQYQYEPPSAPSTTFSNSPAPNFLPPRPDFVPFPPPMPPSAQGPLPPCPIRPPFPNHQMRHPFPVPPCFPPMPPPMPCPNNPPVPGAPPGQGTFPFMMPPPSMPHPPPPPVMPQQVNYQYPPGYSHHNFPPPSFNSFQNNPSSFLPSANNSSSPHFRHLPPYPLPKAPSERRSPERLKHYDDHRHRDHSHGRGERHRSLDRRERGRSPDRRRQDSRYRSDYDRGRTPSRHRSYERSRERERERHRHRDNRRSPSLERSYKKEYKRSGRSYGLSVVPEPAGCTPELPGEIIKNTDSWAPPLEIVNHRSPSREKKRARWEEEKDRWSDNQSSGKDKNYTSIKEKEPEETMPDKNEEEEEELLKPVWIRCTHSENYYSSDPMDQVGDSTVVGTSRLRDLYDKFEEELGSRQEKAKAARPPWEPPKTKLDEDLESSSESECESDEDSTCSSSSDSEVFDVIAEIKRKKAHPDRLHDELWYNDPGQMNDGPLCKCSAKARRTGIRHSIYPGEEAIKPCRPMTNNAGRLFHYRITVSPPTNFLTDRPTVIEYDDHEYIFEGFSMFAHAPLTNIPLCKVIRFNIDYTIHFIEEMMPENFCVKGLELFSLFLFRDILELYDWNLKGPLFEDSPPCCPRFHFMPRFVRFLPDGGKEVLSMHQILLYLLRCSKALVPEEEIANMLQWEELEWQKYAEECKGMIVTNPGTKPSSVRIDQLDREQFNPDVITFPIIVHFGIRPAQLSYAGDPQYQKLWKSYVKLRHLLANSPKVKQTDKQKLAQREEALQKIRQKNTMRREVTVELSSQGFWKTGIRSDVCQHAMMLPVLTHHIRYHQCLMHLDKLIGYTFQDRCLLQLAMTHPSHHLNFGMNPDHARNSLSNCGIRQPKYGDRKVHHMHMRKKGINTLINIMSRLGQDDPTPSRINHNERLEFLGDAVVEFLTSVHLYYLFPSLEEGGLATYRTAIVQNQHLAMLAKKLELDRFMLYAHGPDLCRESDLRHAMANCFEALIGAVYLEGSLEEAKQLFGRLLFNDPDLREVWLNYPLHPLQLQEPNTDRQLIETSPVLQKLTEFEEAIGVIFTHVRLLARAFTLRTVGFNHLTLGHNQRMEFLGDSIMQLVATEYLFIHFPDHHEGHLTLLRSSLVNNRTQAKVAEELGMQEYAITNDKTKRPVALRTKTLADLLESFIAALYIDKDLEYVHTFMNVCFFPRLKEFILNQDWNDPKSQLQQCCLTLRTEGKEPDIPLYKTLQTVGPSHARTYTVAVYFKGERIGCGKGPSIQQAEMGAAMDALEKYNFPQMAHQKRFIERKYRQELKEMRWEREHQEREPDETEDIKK
UniProt Q4LDG9: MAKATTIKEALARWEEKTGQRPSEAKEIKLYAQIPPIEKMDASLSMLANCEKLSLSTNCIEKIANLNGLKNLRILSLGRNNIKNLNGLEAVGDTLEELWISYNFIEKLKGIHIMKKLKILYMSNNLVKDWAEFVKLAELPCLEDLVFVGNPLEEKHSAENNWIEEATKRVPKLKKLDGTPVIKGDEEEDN
UniProt Q3B7T1: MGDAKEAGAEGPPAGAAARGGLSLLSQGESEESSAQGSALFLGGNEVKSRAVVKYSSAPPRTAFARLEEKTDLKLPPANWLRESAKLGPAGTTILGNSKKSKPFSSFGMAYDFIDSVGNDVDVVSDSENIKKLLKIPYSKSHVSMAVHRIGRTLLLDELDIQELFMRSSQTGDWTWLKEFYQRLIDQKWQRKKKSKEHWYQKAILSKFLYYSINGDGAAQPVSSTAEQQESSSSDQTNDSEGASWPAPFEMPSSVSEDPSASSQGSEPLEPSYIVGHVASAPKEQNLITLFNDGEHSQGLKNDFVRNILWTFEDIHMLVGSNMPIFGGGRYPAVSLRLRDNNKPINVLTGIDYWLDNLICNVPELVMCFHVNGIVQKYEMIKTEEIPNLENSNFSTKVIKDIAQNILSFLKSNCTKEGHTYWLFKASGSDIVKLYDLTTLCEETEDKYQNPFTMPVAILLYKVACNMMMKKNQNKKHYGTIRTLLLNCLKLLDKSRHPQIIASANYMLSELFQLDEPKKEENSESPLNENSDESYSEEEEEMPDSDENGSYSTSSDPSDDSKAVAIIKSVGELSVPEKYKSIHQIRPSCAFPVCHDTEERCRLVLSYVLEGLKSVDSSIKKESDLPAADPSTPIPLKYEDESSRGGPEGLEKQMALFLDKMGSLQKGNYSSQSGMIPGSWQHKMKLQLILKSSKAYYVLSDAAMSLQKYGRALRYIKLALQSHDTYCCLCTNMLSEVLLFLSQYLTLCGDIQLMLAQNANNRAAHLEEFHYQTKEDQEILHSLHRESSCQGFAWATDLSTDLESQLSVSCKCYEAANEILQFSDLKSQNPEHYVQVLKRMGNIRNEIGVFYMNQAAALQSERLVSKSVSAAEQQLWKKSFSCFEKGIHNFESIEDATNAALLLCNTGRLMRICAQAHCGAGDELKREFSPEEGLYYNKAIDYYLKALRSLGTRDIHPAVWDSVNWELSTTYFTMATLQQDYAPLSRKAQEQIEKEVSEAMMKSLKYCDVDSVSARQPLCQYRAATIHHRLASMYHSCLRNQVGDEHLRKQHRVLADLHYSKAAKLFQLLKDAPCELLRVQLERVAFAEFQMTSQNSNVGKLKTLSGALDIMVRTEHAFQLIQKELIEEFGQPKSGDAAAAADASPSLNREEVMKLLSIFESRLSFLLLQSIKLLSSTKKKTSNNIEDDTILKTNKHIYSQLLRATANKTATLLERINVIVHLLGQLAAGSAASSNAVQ
UniProt Q8WXX5: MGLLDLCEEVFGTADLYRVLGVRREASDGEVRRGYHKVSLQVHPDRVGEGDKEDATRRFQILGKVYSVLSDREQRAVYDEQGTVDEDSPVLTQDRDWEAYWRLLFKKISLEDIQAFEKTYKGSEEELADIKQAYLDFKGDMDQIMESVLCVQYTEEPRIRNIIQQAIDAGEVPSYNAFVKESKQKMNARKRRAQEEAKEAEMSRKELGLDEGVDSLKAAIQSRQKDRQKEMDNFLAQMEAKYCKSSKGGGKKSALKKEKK
UniProt Q14195, whole entry, looked up: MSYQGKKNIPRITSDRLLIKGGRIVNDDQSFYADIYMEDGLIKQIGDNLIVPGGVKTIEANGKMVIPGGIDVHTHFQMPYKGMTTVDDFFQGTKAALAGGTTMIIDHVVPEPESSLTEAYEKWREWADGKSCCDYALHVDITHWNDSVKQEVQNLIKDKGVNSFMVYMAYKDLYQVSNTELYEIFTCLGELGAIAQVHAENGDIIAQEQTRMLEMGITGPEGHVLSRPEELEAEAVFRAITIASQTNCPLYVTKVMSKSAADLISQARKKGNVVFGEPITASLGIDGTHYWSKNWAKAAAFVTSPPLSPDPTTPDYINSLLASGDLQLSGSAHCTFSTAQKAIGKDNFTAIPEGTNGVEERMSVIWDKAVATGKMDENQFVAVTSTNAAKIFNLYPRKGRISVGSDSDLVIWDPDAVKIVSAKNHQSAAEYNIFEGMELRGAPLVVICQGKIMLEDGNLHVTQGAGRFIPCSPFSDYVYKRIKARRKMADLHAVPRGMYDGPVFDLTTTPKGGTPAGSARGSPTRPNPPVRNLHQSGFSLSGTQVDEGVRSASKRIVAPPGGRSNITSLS
UniProt Q9H3Z4: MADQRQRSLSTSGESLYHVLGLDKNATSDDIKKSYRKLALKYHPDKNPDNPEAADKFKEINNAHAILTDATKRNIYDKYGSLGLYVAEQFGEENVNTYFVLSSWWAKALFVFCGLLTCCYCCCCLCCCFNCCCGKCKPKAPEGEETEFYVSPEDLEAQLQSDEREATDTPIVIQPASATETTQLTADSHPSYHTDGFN
UniProt Q8TBM8: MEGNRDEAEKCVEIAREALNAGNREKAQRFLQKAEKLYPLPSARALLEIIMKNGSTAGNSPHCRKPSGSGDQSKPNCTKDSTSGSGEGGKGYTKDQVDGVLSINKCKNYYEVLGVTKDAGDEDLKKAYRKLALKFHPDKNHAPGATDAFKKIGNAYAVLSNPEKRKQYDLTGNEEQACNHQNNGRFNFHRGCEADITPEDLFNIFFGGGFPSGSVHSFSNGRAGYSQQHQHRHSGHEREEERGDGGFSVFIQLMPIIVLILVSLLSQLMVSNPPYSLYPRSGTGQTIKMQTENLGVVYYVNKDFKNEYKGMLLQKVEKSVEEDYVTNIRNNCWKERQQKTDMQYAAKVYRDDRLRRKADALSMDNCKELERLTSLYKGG
UniProt Q96FN9: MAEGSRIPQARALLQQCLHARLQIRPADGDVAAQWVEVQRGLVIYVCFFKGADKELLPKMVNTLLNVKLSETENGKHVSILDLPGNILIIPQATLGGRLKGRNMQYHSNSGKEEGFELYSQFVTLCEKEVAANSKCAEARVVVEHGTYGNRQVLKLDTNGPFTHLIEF
UniProt Q14126: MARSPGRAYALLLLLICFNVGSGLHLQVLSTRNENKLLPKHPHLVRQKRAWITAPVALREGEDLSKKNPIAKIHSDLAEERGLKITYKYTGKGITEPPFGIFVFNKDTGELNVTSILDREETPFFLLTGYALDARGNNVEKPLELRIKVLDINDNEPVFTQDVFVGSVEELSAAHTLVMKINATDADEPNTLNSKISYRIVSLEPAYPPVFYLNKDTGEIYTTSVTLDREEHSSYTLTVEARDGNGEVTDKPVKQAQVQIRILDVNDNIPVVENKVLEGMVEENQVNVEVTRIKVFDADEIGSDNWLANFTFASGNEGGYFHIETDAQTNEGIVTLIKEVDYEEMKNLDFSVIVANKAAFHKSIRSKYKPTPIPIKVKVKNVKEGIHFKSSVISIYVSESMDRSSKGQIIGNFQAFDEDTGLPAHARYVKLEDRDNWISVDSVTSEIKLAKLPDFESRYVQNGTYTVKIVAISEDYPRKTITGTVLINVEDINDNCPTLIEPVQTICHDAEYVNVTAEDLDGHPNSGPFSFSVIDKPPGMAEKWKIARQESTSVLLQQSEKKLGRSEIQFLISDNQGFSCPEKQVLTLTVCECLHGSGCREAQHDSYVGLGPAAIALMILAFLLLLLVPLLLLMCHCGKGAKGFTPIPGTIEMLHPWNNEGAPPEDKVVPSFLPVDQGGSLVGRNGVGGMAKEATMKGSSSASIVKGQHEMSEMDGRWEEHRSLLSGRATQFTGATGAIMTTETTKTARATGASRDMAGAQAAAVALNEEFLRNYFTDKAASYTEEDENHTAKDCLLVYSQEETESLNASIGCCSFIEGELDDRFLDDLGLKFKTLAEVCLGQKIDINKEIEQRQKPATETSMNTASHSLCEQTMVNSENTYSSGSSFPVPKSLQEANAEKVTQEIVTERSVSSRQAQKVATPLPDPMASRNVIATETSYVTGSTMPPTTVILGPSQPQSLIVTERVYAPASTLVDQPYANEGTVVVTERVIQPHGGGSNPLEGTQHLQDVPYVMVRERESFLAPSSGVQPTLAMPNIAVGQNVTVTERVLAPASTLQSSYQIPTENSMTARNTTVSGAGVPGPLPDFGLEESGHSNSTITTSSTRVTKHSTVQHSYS

Experiments:
Assay in all cases: log2 fold change, soluble protein after heating vs DMSO (PISA); higher = thermal stabilisation; K562 cells, 10 uM, 30 min; active = over 0.2 and 3.5 SD of the protein, either way, in both replicates (recomputed)
[1] = compound: C1=CC=C(C=C1)[C@H](COC2=CC3=C(C=C2)NC(=O)N3)NC(=O)C4=CC=CN(C4=O)CC5=CC(=C(C=C5)F)F
Method in brief: (§1)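 Soluble protein was defined as the supernatant after 21,000xg for 90 min. It came from K562 cells at 2×10^6 cells/mL given 10 μM compound for 30 min, heated in aliquots for 3 min across 48°C-58°C, pooled, and extracted in PBS with 0.5% NP-40 at 4°C, and was quantified by TMTpro 16plex LC-MS/MS with equalised channel sums. Thermal stability against control samples, from duplicates, is reported as log2 fold change.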

[2] = compound: CC1=C(SC2=C1C(=N[C@H](C3=NN=C(N32)C)CC(=O)N)C4=CC=C(C=C4)Cl)C
Method in brief: as §1

[3] = compound: c1ccc([C@@H]2C[C@H]2NC2CCNCC2)cc1
Method in brief: as §1

[4] = compound: CC1=C2C(=CC=C1)N=C(N(C2=O)C3=CC=CC=C3C)CN4C=NC5=C(N=CN=C54)N
Method in brief: as §1

[5] = compound: Cc1sc2c(c1C)C(c1ccc(Cl)cc1)=N[C@@H](CC(=O)OC(C)(C)C)c1nnc(C)n1-2
Method in brief: as §1

Target | log2 fold change [1] | log2 fold change [2] | log2 fold change [3] | log2 fold change [4] | log2 fold change [5]
DYNLT3 (UniProt P51808) | inactive: -0.182 | inactive: 0.029 | inactive: 0.036 |  | 
DUSP9 (UniProt Q99956) |  |  |  | inactive: 0.096 | 
DNM1 (UniProt Q05193) |  |  |  | inactive: 0.258 | 
DNPH1 (UniProt H0Y8X4) |  | inactive: -0.006 | inactive: 0.065 |  | inactive: -0.08
DUSP12 (UniProt V9GYV5) |  |  |  | inactive: 0 | 
DONSON (UniProt Q9NYP3) |  | inactive: -0.102 | inactive: 0.017 | inactive: 0.083 | inactive: 0.154
DYNC2LI1 isoform 2 (UniProt Q8TCX1) |  | inactive: -0.125 | inactive: -0.255 | inactive: 0.203 | 
DUSP14 (UniProt O95147) | inactive: -0.129 | inactive: 0.009 | inactive: -0.007 | inactive: 0.082 | inactive: 0.035
DNPEP (UniProt C9JBE1) | inactive: 0.091 |  |  | inactive: 0.097 | inactive: 0.087
DROSHA (UniProt Q9NRR4) |  | inactive: -0.242 | inactive: -0.195 |  | inactive: 0.226
DNPEP (UniProt B9ZVU2) |  | inactive: 0.105 | inactive: 0.307 | inactive: -0.024 | inactive: -0.051
DNAL1 (UniProt Q4LDG9) | inactive: 0.146 | inactive: 0.086 | inactive: 0.03 | inactive: -0.264 | 
EDRF1 (UniProt Q3B7T1) | inactive: 0.043 | inactive: 0.245 | inactive: -0.061 |  | 
ECHDC3 (UniProt Q96DC8) | inactive: -0.023 |  |  | inactive: 0.012 | inactive: -0.044
EARS2 isoform 2 (UniProt Q5JPH6) | inactive: -0.428 |  |  | inactive: 0.192 | inactive: -0.13
DOCK1 (UniProt Q14185) | inactive: 0.016 | inactive: 0.098 | inactive: 0.1 | inactive: 0.349 | 
DOLK (UniProt Q9UPQ8) | inactive: 0.066 | inactive: 0.078 | inactive: 0.1 |  | 
DNAJC9 (UniProt Q8WXX5) | inactive: 0.026 | inactive: 0.044 | inactive: -0.006 | inactive: 0.08 | inactive: 0.001

Target | log2 fold change [1] | log2 fold change [2] | log2 fold change [3] | log2 fold change [4] | log2 fold change [5]
DRAP1 (UniProt E9PQX9) |  |  |  |  | inactive: -0.02
DNAJB1 (UniProt M0R128) | active: -0.843 | inactive: 0.006 | inactive: 0.061 | inactive: 0.106 | inactive: 0.078
DYNC1I1 (UniProt O14576) |  |  |  | inactive: 0.15 | 
DNAJB14 (UniProt H7C494) |  |  |  | inactive: 0.025 | 
DYSF isoform 13 (UniProt O75923) | inactive: -0.001 |  |  | inactive: -0.264 | inactive: 0.11
ECM1 isoform 2 (UniProt Q16610) | inactive: 0.142 |  |  | inactive: -0.292 | inactive: -0.368
DPYSL3 isoform 2 (UniProt Q14195) |  |  |  | inactive: 0.028 | 
DPCD (UniProt Q9BVM2) |  |  |  | inactive: 0.018 | 
EAPP (UniProt Q56P03) |  | inactive: 0.057 | inactive: -0.085 | inactive: 0.053 | inactive: -0.116
DOCK10 (UniProt Q96BY6) |  |  |  | inactive: -0.109 | inactive: 0
DNAJC5 (UniProt Q9H3Z4) | inactive: 0.029 |  |  | inactive: 0.078 | inactive: 0.042
DRAM2 (UniProt Q6UX65) |  | inactive: 0.023 | inactive: 0.195 | inactive: 0.057 | inactive: -0.077
DNAJB14 (UniProt Q8TBM8) | inactive: 0.02 | inactive: 0.104 | inactive: -0.077 | inactive: -0.001 | inactive: -0.067
DTD2 (UniProt Q96FN9) |  | inactive: 0.051 | inactive: -0.113 | inactive: 0.055 | inactive: -0.049
DNM2 isoform 4 (UniProt P50570) | inactive: 0.015 | inactive: 0.065 | inactive: -0.022 |  | 
DSG2 (UniProt Q14126) | inactive: -0.01 | inactive: 0.078 | inactive: 0.038 | inactive: 0.037 | inactive: 0.034
DOP1A (UniProt Q5JWR5) | inactive: 0.203 |  |  | inactive: 0.049 | 

Another view of some results above:

| Target | log2 fold change [1] | log2 fold change [2] | log2 fold change [3] | log2 fold change [4] | log2 fold change [5] |
| --- | --- | --- | --- | --- | --- |
| ECM1 isoform 2 (UniProt Q16610) | inactive: 0.142 |  |  | inactive: -0.292 | inactive: -0.368 |
| DPYSL3 isoform 2 (UniProt Q14195) |  |  |  | inactive: 0.028 |  |
